Measurements from the supplement of paper PMC12889115.
This is one part of the list. Values are raw readings; no control value is given beside them.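 In the initial screen, polymyxin B was used at a concentration that permeabilizes Salmonella's outer membrane but not its inner membrane. Maximum growth was set by DMSO wells with or without polymyxin B. Since plates varied, data were ranked per plate, and compounds giving the lowest OD600 advanced as hits.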

System: Salmonella enterica serovar Typhimurium SL1344
Test: bacterial growth OD600 after 18 h with compound and polymyxin B; higher = more bacterial growth (less inhibition)
Conditions: 50 µM, Mueller-Hinton broth

Row | Structure (SMILES) | bacterial growth OD600 (polymyxin B 0.75 µg/mL) | bacterial growth OD600 (polymyxin B 1 µg/mL)
1 | CC1CN(Cc2cccc3ncccc23)Cc2ccccc2O1 (configuration not stated) | 0.901 | –
2 | CN(Cc1ccccc1)Cc1cc(C(=O)NCc2c[nH]nc2-c2ccccc2)no1 | – | 1.12
3 | COc1ccccc1-c1ccnc(-n2ncc(C(=O)NCCc3cccnc3)c2C2CC2)n1 | 0.884 | –
4 | Cc1cccc(CN2CCCC(O)(CN3CCNC(=O)C3(C)C)C2=O)c1 (configuration not stated) | – | 0.917
5 | COc1cc(OC)c(OC)cc1CN1CCOc2ccc(C(C)(O)COc3ccccc3)cc2C1 (configuration not stated) | 0.559 | –
6 | O=C(CN1Cc2ccccc2OC(c2ccsc2)C1)N1CCCCC1c1nc2cc(F)ccc2[nH]1 (configuration not stated) | 0.556 | –
7 | Cc1ccccc1N1CCN(C2CCCN(C(=O)CCC3CCCC3)C2)CC1 (configuration not stated) | – | 0.01
8 | Cc1cccc(CC(C)NC(=O)c2coc(COc3cccc(F)c3)n2)n1 (configuration not stated) | – | 0.953
9 | CCC1CN(Cc2sccc2C)Cc2cc(OC)ccc2O1 (configuration not stated) | 0.066 | –
10 | O=C(CCC1CCCN(C23CC4CC(CC(C4)C2)C3)C1)NC1CC1 (configuration not stated) | 0.812 | –
11 | CCN(Cc1nccn1C)C(=O)c1ccc(NC2CCC2)nc1 | – | 0.96
12 | CC(C)N1CCC(N2CCCC(C(=O)NC3CCCC3)C2)CC1 (configuration not stated) | 0.887 | –
13 | CCOC(=O)C1(Cc2ccc(F)cc2F)CCCN(C(=O)c2ccc3c(c2)OCCO3)C1 (configuration not stated) | – | 0.203
14 | Cc1nc(C(=O)N(CC2CCN(Cc3ccccc3F)CC2)CC2CCCO2)cs1 (configuration not stated) | – | 0.829
15 | CC#CC(=O)NC1CCCc2c1cnn2-c1cccc(C)c1C (configuration not stated) | – | 0.846
16 | Cc1nc(N2CCC(C(=O)N3CC[C@@H]4CCCC[C@H]4C3)CC2)nc2cc(S(C)(=O)=O)ccc12 | -0.002 | –

Random excerpt: 2 compounds from above
Row | Structure (SMILES) | bacterial growth OD600 (polymyxin B 0.75 µg/mL) | bacterial growth OD600 (polymyxin B 1 µg/mL)
8 | Cc1cccc(CC(C)NC(=O)c2coc(COc3cccc(F)c3)n2)n1 (configuration not stated) | – | 0.953
13 | CCOC(=O)C1(Cc2ccc(F)cc2F)CCCN(C(=O)c2ccc3c(c2)OCCO3)C1 (configuration not stated) | – | 0.203

(cont.)

Row | Structure (SMILES) | bacterial growth OD600 (polymyxin B 0.75 µg/mL) | bacterial growth OD600 (polymyxin B 1 µg/mL)
17 | CN(CC1CCN(CCc2ccc(Cl)cc2)CC1)C1CCC1 | – | 0.777
18 | CCOC(=O)N1CCN(C(=O)C2CC23CCN(C(=O)C2CC(=O)c4ccccc42)CC3)CC1 (configuration not stated) | 0.822 | –
19 | Cc1cnc(C(=O)N2CCc3onc(-c4ccc5c(c4)OCO5)c3C2)cn1 | 0.832 | –
20 | COc1cccc(-c2cc3c(c(OC)c2)OCCN(C(=O)C2CC2)C3)c1 | 0.578 | –
21 | O=C(Cc1ccccc1)Nc1ccnn1C1CCN(Cc2ccccc2O)CC1 | 0.86 | –
22 | Cc1nc(N2CCCCCCC2)ncc1C(C)NC(=O)CCC(N)=O (configuration not stated) | – | 0.923
23 | CCCn1ncc(CN2C[C@H]3OC(=O)N(CCc4ccccn4)[C@H]3C2)c1C | 0.821 | –
24 | OCCC1CN(Cc2cccnc2)CCN1CC1CCCCC1 (configuration not stated) | – | 0.952
25 | CCN(Cc1ccccc1)C(=O)CCC1(Cc2ccc3ccccc3c2)CCC(=O)N1 (configuration not stated) | 0.74 | –
26 | Cc1c(C(C)NCc2cccc3nonc23)cnn1-c1ccc(F)cc1F (configuration not stated) | 0.641 | –
27 | CCc1ocnc1C(=O)N1CCC2(CCCN(Cc3ccccc3F)C2=O)C1 (configuration not stated) | – | 0.787
28 | CC#CC(=O)N1CCc2onc(-c3ccc(F)c(F)c3)c2C1 | 0.788 | –
29 | Cc1cc(Cl)ccc1OC(C)C(=O)N1CCc2c(cnc(C)c2CNC(=O)c2ccccc2F)C1 (configuration not stated) | 0.008 | –
30 | CCOCC(O)CNC(=O)c1cc(OC)ccc1OC1CCN(C2CCCC2)CC1 (configuration not stated) | – | 1.27
31 | O=C(c1csc2nc(-c3ccccc3)cn12)N1CCN(Cc2ccc3c(c2)OCO3)CC1 | – | 0.971
32 | CN(C)S(=O)(=O)NCC1CCCN(Cc2ccc3c(c2)OCCO3)C1 (configuration not stated) | 0.838 | –
